In the experiment the target is GST-N163 (N-terminal rEag1 GST fusion protein that encodes the complete PAS domain) (rat). The experiment can be described thus: pull-down; GST protein-coated glutathione-agarose beads (4-8 µg) incubated with lysates of HEK293T cells expressing myc-tagged 14-3-3 isoforms at 4°C overnight; washed with buffer A; immunoblot with anti-myc; only the target purified. On the technique in general: Immunoblotting shows a protein as a band on a membrane.

These are yes or no findings as the source states them, for the method shown. Binding seen in cells or lysates may run through a third protein. A result given as binding can be weak or reduced; the word gives no strength. Sequences can lack the tags named with a protein.

B1: myc-tagged 14-3-3θ (protein, UniProt P68255 1-245)
chain: MEKTELIQKAKLAEQAERYDDMATCMKAVTEQGAELSNEERNLLSVAYKNVVGGRRSAWRVISSIEQKTDTSDKKLQLIKDYREKVESELRSICTTVLELLDKYLIANATNPESKVFYLKMKGDYFRYLAEVACGDDRKQTIENSQGAYQEAFDISKKEMQPTHPIRLGLALNFSVFYYEILNNPELACTLAKTAFDEAIAELDTLNEDSYKDSTLIMQLLRDNLTLWTSDSAGEECDAAEGAEN
With B1, the binding entry was “binds”.

These data come from paper PMC3401112.
